Experimental data published in PubChem BioAssay AID540317 (National Center for Advancing Translational Sciences (NCATS), 2011).
The campaign covered roughly 390,000 compounds. About 2,200 (0.56%) were called active. All entries are inconclusive by the source's own rule. Clear calls are listed elsewhere. Calls come from the whole dose curve; as a rule, active = well fitted inhibition curve with a large enough effect; inconclusive = small, poorly fitted or top-dose-only effect; inactive = no such curve, though single readings can be large or run the other way.
Note: nearly all actives have a fitted effect of over 70% in size.
Potency is the fitted concentration of half-maximal effect.

The chains behind the UniProt entries cited, without tags or fusion partners.
UniProt P83916, whole entry: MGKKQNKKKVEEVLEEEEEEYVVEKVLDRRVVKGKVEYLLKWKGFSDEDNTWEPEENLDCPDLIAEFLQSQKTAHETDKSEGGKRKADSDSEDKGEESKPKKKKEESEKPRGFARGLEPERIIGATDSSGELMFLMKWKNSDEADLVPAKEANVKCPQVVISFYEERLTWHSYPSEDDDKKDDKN

The compounds below were run against Chromobox protein homolog 1 (Homo sapiens) (UniProt P83916) (assay: HTS for Inhibitors of HP1-beta Chromodomain Interactions with Methylated Histone Tails). Conditions: AlphaScreen HP1-beta / biotin-H3K9me3 peptide binding.
`O=[N+]([O-])c1cc([N+](=O)[O-])c(Nc2ccccn2)c([N+](=O)[O-])c1` was tested, and the Potency was inconclusive: 70.8 µM.
With `O=[N+]([O-])c1cc([N+](=O)[O-])c(-c2cnn(-c3ccccc3)c2)c([N+](=O)[O-])c1` the Potency was inconclusive: 14.1 µM.
